{"source": "paper PMC11467436", "about": "“Novel mechanisms of MITF regulation identified in a mouse suppressor screen”", "key": {"[1]": {"tested_on": "MITF-WT (mouse) (Mus musculus)", "assay": "EMSA", "conditions": "C5 MITF antibody supershift; EMSA: 10 mM Hepes pH 7.9, 50 mM NaCl, 5 mM MgCl2, 0.1 mM EDTA, 2 mM DTT, 5% ethylene glycol, 5% glycerol, BSA, 30 min on ice; protein translated in vitro; residues 1-419"}, "[2]": {"tested_on": "MITF-sl (mouse) (Mus musculus)", "assay": "EMSA", "conditions": "EMSA: 10 mM Hepes pH 7.9, 50 mM NaCl, 5 mM MgCl2, 0.1 mM EDTA, 2 mM DTT, 5% ethylene glycol, 5% glycerol, BSA, 30 min on ice; protein translated in vitro"}, "[3]": {"tested_on": "MITF-sp (mouse) (Mus musculus)", "assay": "EMSA", "conditions": "EMSA: 10 mM Hepes pH 7.9, 50 mM NaCl, 5 mM MgCl2, 0.1 mM EDTA, 2 mM DTT, 5% ethylene glycol, 5% glycerol, BSA, 30 min on ice; protein translated in vitro"}, "[4]": {"tested_on": "hMITF-WT (Homo sapiens)", "assay": "single-molecule fluorescence anisotropy", "conditions": "165 mM KCl; 5' C6-amino linker on both strands; Single-molecule: 0.5 nM DNA, 10 mM Tris pH 7.4, 0.1 mM EDTA, 165 or 300 mM KCl, 1 mM MgCl2, 143 mM 2-ME, 0.01% Tween-20, 0.1 mg/mL BSA; recombinant protein; residues 1-419"}, "[5]": {"tested_on": "hMITF-sl (Homo sapiens)", "assay": "single-molecule fluorescence anisotropy", "conditions": "165 mM KCl; 5' C6-amino linker on both strands; Single-molecule: 0.5 nM DNA, 10 mM Tris pH 7.4, 0.1 mM EDTA, 165 or 300 mM KCl, 1 mM MgCl2, 143 mM 2-ME, 0.01% Tween-20, 0.1 mg/mL BSA; recombinant protein"}, "[6]": {"tested_on": "hMITF-sp (Homo sapiens)", "assay": "single-molecule fluorescence anisotropy", "conditions": "165 mM KCl; 5' C6-amino linker on both strands; Single-molecule: 0.5 nM DNA, 10 mM Tris pH 7.4, 0.1 mM EDTA, 165 or 300 mM KCl, 1 mM MgCl2, 143 mM 2-ME, 0.01% Tween-20, 0.1 mg/mL BSA; recombinant protein"}}, "note": "The exact form of at least one protein or probe is not confirmed."}
{"sequence": "AAAGTCAGTCATGTGCTTTTCAGA (double strand) [M-box EMSA probe]", "values": [{"measurement": "binding result", "setting": "[1]", "value": "binds"}, {"measurement": "binding result", "setting": "[2]", "value": "binds"}, {"measurement": "binding result", "setting": "[3]", "value": "binds"}]}
{"sequence": "GAGATCATGTGTTGA (double strand) [M-box smFRET probe]", "values": [{"measurement": "Kd", "setting": "[4]", "value": "< 0.25", "unit": "nM"}, {"measurement": "Kd", "setting": "[5]", "value": "< 0.25", "unit": "nM"}, {"measurement": "Kd", "setting": "[6]", "value": "< 0.25", "unit": "nM"}]}
